Data reported in doi:10.1101/318840.

Sequences of proteins named here, by UniProt entry; tags and fusion partners are left off. A change or cut given only in a name is not applied to a line headed by its entry.
UniProt Q8WXG1: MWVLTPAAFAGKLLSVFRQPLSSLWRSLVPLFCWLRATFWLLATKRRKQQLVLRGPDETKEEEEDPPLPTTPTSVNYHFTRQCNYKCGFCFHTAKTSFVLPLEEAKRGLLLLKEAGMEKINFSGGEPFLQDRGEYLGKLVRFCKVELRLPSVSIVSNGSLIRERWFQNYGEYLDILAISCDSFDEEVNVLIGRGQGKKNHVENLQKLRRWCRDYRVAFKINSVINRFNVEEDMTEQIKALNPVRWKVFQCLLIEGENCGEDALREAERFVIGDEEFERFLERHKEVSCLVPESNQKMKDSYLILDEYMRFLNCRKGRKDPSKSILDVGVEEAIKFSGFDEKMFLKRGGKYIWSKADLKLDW

Molecular target: viperin-Δ3C (human) (UniProt Q8WXG1)
Assay: co-IP

binding: binds
Substance: interleukin-1 receptor-associated kinase-1 (IRAK1), N-terminal Myc tag (from UniProt P51617-1 1-712) (enzyme)

Results are given in words; binding and its absence hold for the method and conditions named. In cells and extracts the contact can be indirect. A result given as binding can be weak or reduced; the word gives no strength.
